Test system: plasma vWF
Experiment: plasma vWF in WT mice given tamoxifen
Assay type: in vivo
Settings: WT mice (n=2); 1 mg per day for 5 days

CC/C(=C(\c1ccccc1)c1ccc(OCCN(C)C)cc1)c1ccccc1 [TX, tamoxifen]
plasma vWF level on day 3: small transient increase | plasma vWF level on day 7, 10, and 14: normalized

Source: US9796757B2, “Compositions and method for treating thrombosis” (The Board of Trustees of the University of Illinois, priority 2013, dated 2017)
